# Laboratory results from patent publication EP1621546B1 (Tecnogen S.p.A., priority 2004, dated 2008).
# Test: general procedure: Fmoc solid-phase peptide synthesis; polystyrene-1% divinylbenzene, 100-200 mesh, derivatized with p-benzyloxy-benzyl group (substitution 0.75 meq/g), Novabi; HOBt/HBTU
# Conditions: whole synthesis, calculated from the micromols of Fmoc splitted from the N-terminal cysteines, scale 100 µmol, one disulfide bridge, sequence written open
substance,measurement,value
(NH2-L-Cys-L-Tyr-L-His-L-His)2-L-Lys-L-Gly-OH,crude yield,93.5%
